± gives the standard deviation of the averaged measurements. The list shows a part of the results.
Compound: Nc1nc2c(ncn2[C@@H]2O[C@H](COP(=O)(O)OP(=O)(O)OP(=O)(O)O)[C@@H](O)[C@H]2O)c(=O)[nH]1 [guanosine triphosphate]
Test: NP40-soluble protein abundance relative to vehicle (solubility fold change) (ratio); higher = more soluble protein in presence of GTP
Method in brief: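 Values are fold changes against the detergent-processed vehicle, based on vsn-normalised intensities. Jurkat crude lysate was treated at eight concentrations from 0.1 to 10 mM (10 min at room temperature, then 3 min at 37 °C), solubilised with 0.8% NP40 and benzonase, ultracentrifuged and analysed by TMT-labelled LC-MS/MS over three independent experiments.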

Sequences of proteins named here, by UniProt entry; tags and fusion partners are left off. A change or cut given only in a name is not applied to a line headed by its entry.
UniProt Q8N3C0, whole entry: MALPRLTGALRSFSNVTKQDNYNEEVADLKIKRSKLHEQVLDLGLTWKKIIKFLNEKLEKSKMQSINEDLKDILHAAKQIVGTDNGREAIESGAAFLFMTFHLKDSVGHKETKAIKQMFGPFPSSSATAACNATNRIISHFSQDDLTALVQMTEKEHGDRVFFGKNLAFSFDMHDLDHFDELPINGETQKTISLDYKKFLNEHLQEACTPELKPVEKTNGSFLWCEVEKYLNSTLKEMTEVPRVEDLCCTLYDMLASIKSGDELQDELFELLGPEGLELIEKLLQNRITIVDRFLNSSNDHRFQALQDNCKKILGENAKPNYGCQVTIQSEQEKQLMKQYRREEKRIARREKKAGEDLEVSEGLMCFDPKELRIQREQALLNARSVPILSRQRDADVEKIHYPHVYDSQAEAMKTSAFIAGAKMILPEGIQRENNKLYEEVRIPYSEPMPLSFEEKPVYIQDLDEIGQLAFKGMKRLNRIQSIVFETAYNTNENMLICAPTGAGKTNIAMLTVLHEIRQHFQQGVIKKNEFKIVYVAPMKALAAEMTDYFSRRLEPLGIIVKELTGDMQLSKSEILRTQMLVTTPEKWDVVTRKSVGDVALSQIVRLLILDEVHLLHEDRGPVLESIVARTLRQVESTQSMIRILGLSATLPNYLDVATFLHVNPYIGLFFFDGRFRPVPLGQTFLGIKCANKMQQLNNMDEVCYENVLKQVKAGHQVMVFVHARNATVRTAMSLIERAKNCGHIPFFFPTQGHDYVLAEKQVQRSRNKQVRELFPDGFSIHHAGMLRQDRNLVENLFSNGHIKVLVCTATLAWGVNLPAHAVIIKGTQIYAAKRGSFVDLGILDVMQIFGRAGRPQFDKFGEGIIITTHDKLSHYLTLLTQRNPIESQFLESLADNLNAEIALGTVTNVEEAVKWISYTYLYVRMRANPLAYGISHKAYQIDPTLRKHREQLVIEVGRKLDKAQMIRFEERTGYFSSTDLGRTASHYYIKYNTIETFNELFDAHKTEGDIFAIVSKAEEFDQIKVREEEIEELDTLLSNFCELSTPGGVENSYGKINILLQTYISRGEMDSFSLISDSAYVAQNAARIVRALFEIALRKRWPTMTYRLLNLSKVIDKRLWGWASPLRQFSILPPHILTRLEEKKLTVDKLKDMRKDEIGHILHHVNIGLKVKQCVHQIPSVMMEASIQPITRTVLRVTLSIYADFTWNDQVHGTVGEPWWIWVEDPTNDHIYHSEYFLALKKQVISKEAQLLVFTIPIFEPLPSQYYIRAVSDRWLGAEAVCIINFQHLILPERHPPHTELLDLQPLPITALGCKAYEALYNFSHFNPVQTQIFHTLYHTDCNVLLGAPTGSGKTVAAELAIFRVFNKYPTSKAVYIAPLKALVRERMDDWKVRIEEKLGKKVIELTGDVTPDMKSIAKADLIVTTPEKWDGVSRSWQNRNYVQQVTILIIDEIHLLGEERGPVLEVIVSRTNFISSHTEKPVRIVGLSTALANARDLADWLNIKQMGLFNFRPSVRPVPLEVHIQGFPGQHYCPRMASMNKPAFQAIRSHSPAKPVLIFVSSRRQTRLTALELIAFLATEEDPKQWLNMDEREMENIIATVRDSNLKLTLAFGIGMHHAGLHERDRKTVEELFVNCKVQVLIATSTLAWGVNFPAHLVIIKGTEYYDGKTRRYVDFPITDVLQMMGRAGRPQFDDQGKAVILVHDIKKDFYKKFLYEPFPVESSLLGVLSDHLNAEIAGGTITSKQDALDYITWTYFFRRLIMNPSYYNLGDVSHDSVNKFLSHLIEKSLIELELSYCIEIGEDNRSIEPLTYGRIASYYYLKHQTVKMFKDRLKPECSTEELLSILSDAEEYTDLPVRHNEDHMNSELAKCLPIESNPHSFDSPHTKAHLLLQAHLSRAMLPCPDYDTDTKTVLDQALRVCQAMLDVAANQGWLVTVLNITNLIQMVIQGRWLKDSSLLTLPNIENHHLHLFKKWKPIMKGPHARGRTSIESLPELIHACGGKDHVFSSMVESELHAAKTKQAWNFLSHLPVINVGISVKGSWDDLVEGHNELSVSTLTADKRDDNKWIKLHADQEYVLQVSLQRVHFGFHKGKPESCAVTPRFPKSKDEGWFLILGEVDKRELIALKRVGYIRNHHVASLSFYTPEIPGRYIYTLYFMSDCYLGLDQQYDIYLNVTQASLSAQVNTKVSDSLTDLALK
UniProt Q8TCJ2: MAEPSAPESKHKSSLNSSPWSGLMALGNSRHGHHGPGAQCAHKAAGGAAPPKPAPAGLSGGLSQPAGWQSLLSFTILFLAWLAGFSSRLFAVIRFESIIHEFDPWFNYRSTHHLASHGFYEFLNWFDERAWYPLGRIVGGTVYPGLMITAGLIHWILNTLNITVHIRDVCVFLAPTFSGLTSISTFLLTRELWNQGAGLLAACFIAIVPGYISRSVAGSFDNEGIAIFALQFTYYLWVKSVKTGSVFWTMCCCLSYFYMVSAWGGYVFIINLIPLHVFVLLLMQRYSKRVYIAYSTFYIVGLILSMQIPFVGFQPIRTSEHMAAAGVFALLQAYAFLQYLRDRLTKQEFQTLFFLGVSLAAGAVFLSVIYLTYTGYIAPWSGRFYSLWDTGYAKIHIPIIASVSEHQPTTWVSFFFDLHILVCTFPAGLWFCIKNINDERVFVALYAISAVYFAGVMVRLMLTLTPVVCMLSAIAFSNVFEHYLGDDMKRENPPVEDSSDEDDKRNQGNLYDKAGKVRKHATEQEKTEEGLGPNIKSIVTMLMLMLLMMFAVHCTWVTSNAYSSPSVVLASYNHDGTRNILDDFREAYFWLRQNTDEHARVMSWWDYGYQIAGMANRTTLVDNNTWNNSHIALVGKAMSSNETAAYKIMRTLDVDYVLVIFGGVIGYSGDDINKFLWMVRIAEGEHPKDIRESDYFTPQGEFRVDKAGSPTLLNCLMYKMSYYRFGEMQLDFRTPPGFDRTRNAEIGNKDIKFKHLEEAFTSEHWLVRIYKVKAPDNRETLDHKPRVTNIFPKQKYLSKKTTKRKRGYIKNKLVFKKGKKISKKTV
UniProt Q86YV0: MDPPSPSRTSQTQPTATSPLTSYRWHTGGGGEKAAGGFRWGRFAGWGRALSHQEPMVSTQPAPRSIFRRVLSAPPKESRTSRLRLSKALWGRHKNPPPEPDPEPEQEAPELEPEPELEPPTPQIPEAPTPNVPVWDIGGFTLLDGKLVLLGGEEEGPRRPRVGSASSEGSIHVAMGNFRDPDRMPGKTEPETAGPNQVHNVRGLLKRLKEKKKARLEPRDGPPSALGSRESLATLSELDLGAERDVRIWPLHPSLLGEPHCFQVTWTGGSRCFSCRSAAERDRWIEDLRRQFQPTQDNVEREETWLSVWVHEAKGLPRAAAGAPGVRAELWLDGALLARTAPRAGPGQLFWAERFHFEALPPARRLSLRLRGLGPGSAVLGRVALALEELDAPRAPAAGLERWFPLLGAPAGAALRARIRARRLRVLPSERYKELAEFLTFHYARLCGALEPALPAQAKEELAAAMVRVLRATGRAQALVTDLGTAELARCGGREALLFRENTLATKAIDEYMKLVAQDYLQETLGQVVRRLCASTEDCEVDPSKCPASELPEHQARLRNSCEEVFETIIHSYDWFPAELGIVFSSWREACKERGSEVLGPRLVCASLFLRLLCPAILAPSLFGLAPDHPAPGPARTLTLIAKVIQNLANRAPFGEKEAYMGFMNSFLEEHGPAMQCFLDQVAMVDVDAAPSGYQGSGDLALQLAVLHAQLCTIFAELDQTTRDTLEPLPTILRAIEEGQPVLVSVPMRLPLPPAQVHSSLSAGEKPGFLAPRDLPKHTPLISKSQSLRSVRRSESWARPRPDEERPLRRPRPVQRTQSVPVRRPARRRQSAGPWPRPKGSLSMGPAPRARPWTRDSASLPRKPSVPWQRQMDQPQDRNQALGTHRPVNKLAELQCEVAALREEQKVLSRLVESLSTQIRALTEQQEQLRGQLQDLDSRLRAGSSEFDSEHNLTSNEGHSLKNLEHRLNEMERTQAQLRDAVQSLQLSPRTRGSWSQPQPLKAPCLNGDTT
UniProt Q8TF68: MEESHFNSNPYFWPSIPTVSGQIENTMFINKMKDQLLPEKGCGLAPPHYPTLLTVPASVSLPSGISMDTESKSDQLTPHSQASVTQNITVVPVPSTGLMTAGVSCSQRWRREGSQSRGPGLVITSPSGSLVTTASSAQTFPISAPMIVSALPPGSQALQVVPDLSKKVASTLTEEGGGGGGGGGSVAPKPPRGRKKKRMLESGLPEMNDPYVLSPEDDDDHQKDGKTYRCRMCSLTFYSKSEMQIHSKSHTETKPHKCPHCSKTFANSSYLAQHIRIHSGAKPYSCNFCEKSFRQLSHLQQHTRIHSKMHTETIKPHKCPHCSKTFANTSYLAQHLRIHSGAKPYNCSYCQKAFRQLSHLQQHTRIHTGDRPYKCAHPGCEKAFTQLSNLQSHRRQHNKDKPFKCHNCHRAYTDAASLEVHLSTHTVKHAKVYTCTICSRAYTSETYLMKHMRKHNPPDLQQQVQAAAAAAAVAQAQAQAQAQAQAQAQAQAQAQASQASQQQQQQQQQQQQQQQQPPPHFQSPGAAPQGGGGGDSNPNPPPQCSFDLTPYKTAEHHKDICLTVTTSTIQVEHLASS
UniProt Q86X10: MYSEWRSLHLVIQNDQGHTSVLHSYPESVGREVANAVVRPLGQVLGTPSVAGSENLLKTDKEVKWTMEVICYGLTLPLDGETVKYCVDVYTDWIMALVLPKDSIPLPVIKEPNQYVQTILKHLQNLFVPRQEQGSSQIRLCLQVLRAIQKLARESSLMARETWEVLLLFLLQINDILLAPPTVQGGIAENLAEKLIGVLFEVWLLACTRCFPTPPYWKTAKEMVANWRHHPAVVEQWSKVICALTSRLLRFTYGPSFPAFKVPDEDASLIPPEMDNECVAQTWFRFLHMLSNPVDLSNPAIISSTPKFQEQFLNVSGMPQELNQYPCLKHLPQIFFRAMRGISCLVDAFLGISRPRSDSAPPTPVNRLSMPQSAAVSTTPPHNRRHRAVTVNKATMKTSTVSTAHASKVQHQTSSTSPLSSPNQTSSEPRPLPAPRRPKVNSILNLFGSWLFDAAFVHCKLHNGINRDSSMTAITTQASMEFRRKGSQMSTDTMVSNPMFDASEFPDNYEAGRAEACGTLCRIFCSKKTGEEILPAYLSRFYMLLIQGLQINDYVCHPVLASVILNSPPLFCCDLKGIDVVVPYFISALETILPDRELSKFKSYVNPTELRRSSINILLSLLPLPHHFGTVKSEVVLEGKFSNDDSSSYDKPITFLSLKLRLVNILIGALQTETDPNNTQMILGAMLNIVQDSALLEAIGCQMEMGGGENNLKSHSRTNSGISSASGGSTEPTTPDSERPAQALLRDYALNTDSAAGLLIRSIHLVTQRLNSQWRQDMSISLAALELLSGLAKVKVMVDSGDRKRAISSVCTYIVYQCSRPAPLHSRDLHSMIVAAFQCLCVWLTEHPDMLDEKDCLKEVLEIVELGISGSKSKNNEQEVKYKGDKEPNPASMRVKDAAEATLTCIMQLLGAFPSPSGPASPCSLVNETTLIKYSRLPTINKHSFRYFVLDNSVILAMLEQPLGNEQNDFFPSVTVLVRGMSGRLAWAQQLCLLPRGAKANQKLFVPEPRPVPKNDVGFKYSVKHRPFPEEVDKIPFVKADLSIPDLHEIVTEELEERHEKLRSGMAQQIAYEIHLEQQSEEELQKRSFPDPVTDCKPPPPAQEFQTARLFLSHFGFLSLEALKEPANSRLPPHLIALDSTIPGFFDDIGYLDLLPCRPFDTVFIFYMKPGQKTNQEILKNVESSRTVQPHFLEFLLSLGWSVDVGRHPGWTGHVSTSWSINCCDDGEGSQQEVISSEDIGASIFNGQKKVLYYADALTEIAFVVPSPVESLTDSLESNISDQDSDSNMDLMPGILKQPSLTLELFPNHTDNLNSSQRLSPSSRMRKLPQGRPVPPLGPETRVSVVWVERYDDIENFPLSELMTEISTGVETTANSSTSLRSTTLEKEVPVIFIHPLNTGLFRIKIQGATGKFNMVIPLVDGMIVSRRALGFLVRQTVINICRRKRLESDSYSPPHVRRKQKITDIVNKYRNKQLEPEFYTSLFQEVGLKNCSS
UniProt Q8N6T7, whole entry: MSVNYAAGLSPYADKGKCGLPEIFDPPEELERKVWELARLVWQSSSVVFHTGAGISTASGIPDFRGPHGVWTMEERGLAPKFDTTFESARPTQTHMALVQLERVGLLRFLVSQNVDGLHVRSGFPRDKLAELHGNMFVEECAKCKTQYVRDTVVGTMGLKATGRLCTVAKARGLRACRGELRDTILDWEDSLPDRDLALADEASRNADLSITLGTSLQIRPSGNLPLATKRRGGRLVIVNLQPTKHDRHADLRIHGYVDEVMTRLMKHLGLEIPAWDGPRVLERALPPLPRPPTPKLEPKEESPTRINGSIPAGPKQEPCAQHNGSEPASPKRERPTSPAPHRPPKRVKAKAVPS

Target	NP40-soluble protein abundance (concentration: 0.1mM)	NP40-soluble protein abundance (concentration: 0.5mM)	NP40-soluble protein abundance (concentration: 1mM)	NP40-soluble protein abundance (concentration: 2mM)	NP40-soluble protein abundance (concentration: 4mM)	NP40-soluble protein abundance (concentration: 6mM)	NP40-soluble protein abundance (concentration: 8mM)	NP40-soluble protein abundance (concentration: 10mM)
ASCC3 (UniProt Q8N3C0)	1 ± 0.066	1.09 ± 0.026	1.06 ± 0.032	1.16 ± 0.091	1.32 ± 0.17	1.38 ± 0.22	1.53 ± 0.26	1.73 ± 0.27
STT3B (UniProt Q8TCJ2)	1.05 ± 0.021	1.09 ± 0.052	1 ± 0.014	1.03 ± 0.042	1.02 ± 0.026	1.01 ± 0.017	1.01 ± 0.013	0.999 ± 0.051
UniProt Q8IZE3-2|X6RHX1	1.11 ± 0.11	1.04 ± 0.059	1.01 ± 0.027	0.953 ± 0.09	0.969 ± 0.021	0.904 ± 0.059	1.01 ± 0.04	0.936 ± 0.12
UniProt Q8IWF6	1.04 ± 0.04	0.968 ± 0.062	0.992 ± 0.056	0.934 ± 0.022	0.984 ± 0.08	0.94 ± 0.024	0.943 ± 0.043	0.896 ± 0.083
RASAL3 (UniProt Q86YV0)	1.03 ± 0.033	1.05 ± 0.037	1.07 ± 0.032	1.11 ± 0.038	1.13 ± 0.056	1.12 ± 0.056	1.14 ± 0.093	1.16 ± 0.093
SETD7 (UniProt Q8WTS6)	0.925 ± 0.054	0.952 ± 0.059	0.931 ± 0.081	0.866 ± 0.084	0.877 ± 0.1	0.887 ± 0.076	0.861 ± 0.077	0.856 ± 0.096
AVL9 (UniProt Q8NBF6)	0.933 ± 0.027	0.942 ± 0.026	0.908 ± 0.031	0.936 ± 0.018	0.912 ± 0.04	0.878 ± 0.013	0.916 ± 0.034	0.921 ± 0.021
AGGF1 (UniProt Q8N302)	1.03 ± 0.11	1.03 ± 0.079	1.05 ± 0.089	1.08 ± 0.12	1.06 ± 0.046	1.05 ± 0.049	1.05 ± 0.042	1.08 ± 0.068
SCCPDH (UniProt Q8NBX0)	0.943 ± 0.025	0.967 ± 0.042	0.912 ± 0.031	0.868 ± 0.054	0.873 ± 0.016	0.878 ± 0.022	0.849 ± 0.011	0.813 ± 0.043
UniProt Q8IX18 and related entries	1.12 ± 0.049	1.16 ± 0.043	1.08 ± 0.058	1.13 ± 0.06	1.07 ± 0.14	1.05 ± 0.11	1.05 ± 0.059	1.02 ± 0.12
UniProt Q8TF68 and related entries	0.963 ± 0.05	0.994 ± 0.025	0.949 ± 0.1	0.94 ± 0.056	0.911 ± 0.13	0.866 ± 0.099	0.913 ± 0.13	0.938 ± 0.08
UniProt Q8NFC6	0.969 ± 0.048	0.992 ± 0.065	0.995 ± 0.052	0.965 ± 0.073	0.957 ± 0.056	0.973 ± 0.054	1.01 ± 0.078	1.01 ± 0.081
UniProt Q8IYB5-2|Q8IYB5-3	0.939 ± 0.031	0.925 ± 0.047	0.937 ± 0.067	0.864 ± 0.081	0.889 ± 0.079	0.898 ± 0.1	0.911 ± 0.1	0.888 ± 0.095
UniProt Q8NG31 and related entries	1.03 ± 0.017	1.02 ± 0.032	1.02 ± 0.013	1.04 ± 0.056	1.04 ± 0.053	1.04 ± 0.056	1.04 ± 0.055	1.03 ± 0.054
UniProt Q86X55 and related entries	1.04 ± 0.098	1.04 ± 0.11	0.975 ± 0.062	1 ± 0.13	1.01 ± 0.11	0.981 ± 0.075	0.919 ± 0.032	0.906 ± 0.078
ZNF740 (UniProt Q8NDX6)	1.01 ± 0.092	1.07 ± 0.12	1.06 ± 0.12	1.15 ± 0.16	1.1 ± 0.17	1.16 ± 0.12	1.09 ± 0.16	1.16 ± 0.12
UBR7 (UniProt Q8N806)	0.951 ± 0.035	0.949 ± 0.035	0.927 ± 0.053	0.905 ± 0.076	0.895 ± 0.064	0.878 ± 0.068	0.89 ± 0.045	0.884 ± 0.094
UniProt Q8N1K5 and related entries	1.06 ± 0.017	1.07 ± 0.037	0.984 ± 0.04	0.983 ± 0.043	0.953 ± 0.043	0.936 ± 0.034	0.921 ± 0.061	0.884 ± 0.1
UniProt Q86X10 and related entries	1.07 ± 0.11	1.12 ± 0.12	1.08 ± 0.098	1.12 ± 0.13	1.12 ± 0.18	1.08 ± 0.13	1.1 ± 0.14	1.06 ± 0.11
UniProt Q86WV1 and related entries	0.925 ± 0.045	1.03 ± 0.063	0.975 ± 0.12	0.978 ± 0.079	0.902 ± 0.1	0.979 ± 0.1	0.934 ± 0.15	0.97 ± 0.052
UniProt Q8IWZ8	0.953 ± 0.042	0.961 ± 0.025	1.06 ± 0.085	1.09 ± 0.026	1.12 ± 0.048	1.13 ± 0.051	1.18 ± 0.095	1.19 ± 0.097
UniProt Q8IW45 and related entries	1.01 ± 0.071	0.978 ± 0.074	0.985 ± 0.038	0.945 ± 0.021	0.969 ± 0.013	0.915 ± 0.045	0.954 ± 0.077	0.91 ± 0.035
UniProt Q8N6T7 and related entries	1.14 ± 0.076	1.07 ± 0.13	1.07 ± 0.06	1.11 ± 0.059	1.05 ± 0.078	1 ± 0.086	1.1 ± 0.086	1.12 ± 0.017
UniProt Q8N7H5 and related entries	0.988 ± 0.052	1.02 ± 0.021	1.03 ± 0.038	1.02 ± 0.04	1.02 ± 0.037	1.03 ± 0.032	0.997 ± 0.081	0.902 ± 0.13

Exported comma-delimited: part of the list above
Target,NP40-soluble protein abundance (concentration: 0.1mM),NP40-soluble protein abundance (concentration: 0.5mM),NP40-soluble protein abundance (concentration: 1mM),NP40-soluble protein abundance (concentration: 2mM),NP40-soluble protein abundance (concentration: 4mM),NP40-soluble protein abundance (concentration: 6mM),NP40-soluble protein abundance (concentration: 8mM),NP40-soluble protein abundance (concentration: 10mM)
AVL9 (UniProt Q8NBF6),0.933 ± 0.027,0.942 ± 0.026,0.908 ± 0.031,0.936 ± 0.018,0.912 ± 0.04,0.878 ± 0.013,0.916 ± 0.034,0.921 ± 0.021
AGGF1 (UniProt Q8N302),1.03 ± 0.11,1.03 ± 0.079,1.05 ± 0.089,1.08 ± 0.12,1.06 ± 0.046,1.05 ± 0.049,1.05 ± 0.042,1.08 ± 0.068
SCCPDH (UniProt Q8NBX0),0.943 ± 0.025,0.967 ± 0.042,0.912 ± 0.031,0.868 ± 0.054,0.873 ± 0.016,0.878 ± 0.022,0.849 ± 0.011,0.813 ± 0.043
UniProt Q8IX18 and related entries,1.12 ± 0.049,1.16 ± 0.043,1.08 ± 0.058,1.13 ± 0.06,1.07 ± 0.14,1.05 ± 0.11,1.05 ± 0.059,1.02 ± 0.12
UniProt Q8TF68 and related entries,0.963 ± 0.05,0.994 ± 0.025,0.949 ± 0.1,0.94 ± 0.056,0.911 ± 0.13,0.866 ± 0.099,0.913 ± 0.13,0.938 ± 0.08
